Laboratory results taken from the supplement of paper PMC11409438.
The list shows a part of the results. Many values rest on one well or one pass, so single values are uncertain.

Tests used:
[1] = tested on: Caenorhabditis elegans ST65 (ncIs13[ajm-1::GFP]); experiment: 'Larvae/adult' ratio (MetaXpress pharynx counts; minimum value 1, so it appears to include adults; growth inhibition read-out); conditions: 10 µM; exposure time: 4-5 days from L1 at 20°C
[2] = tested on: Caenorhabditis elegans ST65 (ncIs13[ajm-1::GFP]); experiment: vulvae per adult worm (MAPK/ERK-dependent vulval induction, MetaXpress) (vulvae/adult); higher = more vulval induction (less MAPK/ERK inhibition); conditions: 10 µM; exposure time: 4-5 days from L1 at 20°C

SMILES	'Larvae/adult' ratio [1]	vulvae per adult worm [2]
CCC1(c2ccc(N)cc2)CCC(=O)NC1=O (centres undefined) [Aminoglutethimide]	3.75	1.75
CCc1c(C(=O)C(N)=O)c2c(OCC(=O)O)cccc2n1Cc1ccccc1	1.29	1
CC[C@@H](C(=O)[C@@H](C)[C@@H](O)[C@H](C)[C@@H]1O[C@@H]([C@@H](CC)C(=O)O)CC[C@@H]1C)[C@H]1O[C@]2(C=C[C@@H](O)[C@]3(CC[C@@](C)([C@H]4CC[C@](O)(CC)[C@H](C)O4)O3)O2)[C@H](C)C[C@@H]1C [Salinomycin (from Streptomyces albus)]	2.14	0.857
Cn1cc(C2=C(c3cn(C4CCN(Cc5ccccn5)CC4)c4ccccc34)C(=O)NC2=O)c2ccccc21	1.54	0.692
O=C(O)CNC(=O)c1c(O)c2ccccc2n(Cc2ccccc2)c1=O	1.71	1.14
CC(O)(CS(=O)(=O)c1ccc(F)cc1)C(=O)Nc1ccc(C#N)c(C(F)(F)F)c1 (centres undefined) [Bicalutamide]	2.96	1.14
Cc1sc2c(c1C)C(c1ccc(Cl)cc1)=N[C@@H](CC(=O)Nc1ccc(O)cc1)c1nnc(C)n1-2	2.71	0.417
COCC1(CO)C(=O)C2CCN1CC2 (centres undefined)	2.51	0.795
OCC(Br)(Br)Br [2,2,2-Tribromoethanol]	1.59	1
CCNC(=O)C[C@@H]1N=C(c2ccc(Cl)cc2)c2cc(OC)ccc2-n2c(C)nnc21	1.79	0
C=C1C[C@@H]2[C@H](CC[C@]3(C)C(=O)CC[C@@H]23)[C@@]2(C)C=CC(=O)C=C12 [Exemestane]	2.68	1.19
COc1cc(C)[nH]c(=O)c1CNC(=O)c1c(C)n([C@H](C)C2CCOCC2)c2ccccc12	1.92	0.846
